Results taken from article PMC5862942.
These are yes or no findings as the source states them, for the method shown. Binding can be weak; no strength is given.

The chains behind the UniProt entries cited, without tags or fusion partners. Where a name states a change or a piece, a line headed by the entry shows the natural chain unless it says otherwise.
UniProt Q8N371: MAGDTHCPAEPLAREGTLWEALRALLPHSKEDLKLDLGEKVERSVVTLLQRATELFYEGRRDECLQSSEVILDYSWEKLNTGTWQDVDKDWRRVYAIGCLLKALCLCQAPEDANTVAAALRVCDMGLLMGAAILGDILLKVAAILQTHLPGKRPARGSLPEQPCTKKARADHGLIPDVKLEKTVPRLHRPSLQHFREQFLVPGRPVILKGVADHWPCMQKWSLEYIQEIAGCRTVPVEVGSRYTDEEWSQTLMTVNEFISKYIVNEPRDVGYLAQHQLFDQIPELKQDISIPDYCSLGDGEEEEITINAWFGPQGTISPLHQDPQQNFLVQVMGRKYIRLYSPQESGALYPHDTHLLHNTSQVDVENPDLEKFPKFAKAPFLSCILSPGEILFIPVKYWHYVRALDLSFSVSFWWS

Legend:
[1] = target: N-terminally truncated JMJD5 (Jumonji-C domain-containing protein 5), wild type (human) (UniProt Q8N371); assay: crystal structure; co-crystallisation without cross-link: 0.8 mM His6-JMJD5, 1.5 mM MnCl2, 2.5 mM NOG, 10 mM substrate peptide; vapour diffusion at 22 °C, 0.1 M Bis-Tris pH 5.8-6.5, PEG 3350; both purified
[2] = target: JMJD5(W414C), N-terminally truncated (human) (UniProt Q8N371); assay: crystal structure; site-specific disulphide enzyme-substrate cross-linked complexes (JMJD5 Cys variant with Cys-containing peptide), with Mn and NOG or 2OG; vapour diffusion at 22 °C, 0.1 M Bis-Tris pH 5.8-6.5, PEG 3350; both purified
[3] = target: JMJD5(N308C), N-terminally truncated (human) (UniProt Q8N371); assay: as above

| binding [1] | binding [2] | binding [3] | Binder |
| --- | --- | --- | --- |
| binds |  |  | VPRRLGPKRASRIRKL (C-terminal amide) [40S ribosomal protein S6 (RPS6) peptide, residues 129-144] |
|  | binds | binds | CARAY (C-terminal amide) [Regulator of chromosome condensation domain-containing protein 1 (RCCD1) peptide, residues 139-143] |
